Experimental data as given in patent publication US4055468A (priority 1974, dated 1977).

Assay: peptide synthesis

| Substance | step yield (late stage modification step) | further results |
| --- | --- | --- |
| PEPTIDE1{[Bz].V.[Sta].A.[Sta]}$$$$V2.0 | 32% | – |
| PEPTIDE1{[2-Phenoxypropionyl].V.[Sta].A.[Sta]}$$$$V2.0 | 75% | – |
| PEPTIDE1{[Phenoxyacetyl].V.[Sta].A.[Sta]}$$$$V2.0 | 44% | – |
| PEPTIDE1{[Palmitoyl].V.[Sta].A.[Sta]}$$$$V2.0 | – | step yield (lipidation step): 78% |
| PEPTIDE1{[ac].V.[Sta].A.[Sta]}$$$$V2.0 | – | step yield (late stage modification step, run 1): 81%; step yield (late stage modification step, run 2): 65% |
| PEPTIDE1{[Isobutyryl].V.[Sta].A.[Sta]}$$$$V2.0 | 50% | – |

HELM strings list residues between dots; [ac] is acetyl, [am] amide, other brackets name non-standard units.
